PubChem BioAssay AID602196, INSERM – 2012

Aim: 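Knock-downs that protect lung cancer cells from cisplatin or sensitise them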
Cells: human A549 lung cancer cells
Reagents: siRNA pair against human genes
Time to read-out: 48 h transfection before cisplatin; time from cisplatin to read-out not stated
Challenge: cisplatin at a dose killing half of control-siRNA cells; exact dose and duration not given
Read-out: 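Shift in cisplatin death relative to control siRNA, from -50 (all cells die) to +50 (no cells die); siRNAs harmful on their own scored 0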
Scale: two-siRNA summed score (-2 to +2): higher = both siRNAs protect from cisplatin killing; -2 means both sensitise; mean protection from cisplatin (shift in death) and protection from cisplatin (shift in death), siRNA C and protection from cisplatin (shift in death), siRNA D: higher = protection from cisplatin killing
Active means: 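Each siRNA scores 0 if harmful alone by LDH or WST-1, otherwise +1 if it reduces and -1 if it increases cisplatin killing; a gene is active when both siRNAs agree (sum +2 or -2)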
Calls: active = both siRNAs shift cisplatin killing the same way; inactive = no consistent shift, or siRNA harmful alone
This is one part, drawn at random, of about 23,000 reagents tested. 455 of all reagents (2%) count as active. 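Active includes both protection and sensitisation; some change values fall well beyond the stated -50 to +50 range.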 A number with no mark means an inactive call. No sequences are given here. Not stated in the record: the amount of reagent.

gene | two-siRNA summed score (-2 to +2) | mean protection from cisplatin (shift in death) (%) | protection from cisplatin (shift in death), siRNA C (%) | protection from cisplatin (shift in death), siRNA D (%)
CNR2 | 0 | 15.3 | 40.4 | -9.7
LYN | 1 | 6.8 | 23.5 | -9.9
LAS1L | 0 | -2 | -1.4 | -2.6
LOC441920 | 0 | 4.4 | 8 | 0.7
JADE2 | 0 | -6.2 | 6.9 | -19.3
PIP5K1C | 0 | 6.6 | 25 | -11.8
LOC402162 | 2 (active) | 19.7 | 12.7 | 26.7
LOC389316 | 0 | 0.2 | 3.8 | -3.5
SPATA18 | 0 | 3.8 | 7.3 | 0.4
HELB | 0 | -10.4 | -12.6 | -8.2
NAT14 | 0 | 1 | 2.8 | -0.9
TIMM9 | 0 | -0.4 | 5.4 | -6.3
GPN3 | 0 | 3.9 | 5.1 | 2.8
MMEL1 | 0 | -4.2 | -0.8 | -7.6
NUMBL | 1 | 10.1 | 20.4 | -0.3
LOC399919 | 0 | 11 | 8.1 | 13.9
IRS2 | -1 | -13.7 | -22.5 | -5
THUMPD2 | 0 | 15.7 | 16.8 | 14.6
RPE | 1 | 8.9 | 26.9 | -9.1
CLDN14 | -1 | -8.3 | -8.5 | -8.1
CISD1 | 0 | 10 | 14.4 | 5.6
CCDC63 | 0 | -2.7 | 3.9 | -9.3
MEGF11 | 0 | 4.4 | 8.7 | 0
GAS1 | 0 | 0.3 | -15.9 | 16.5
MREG | 0 | -5.2 | -8.4 | -2
LOC284898 | 1 | 20.6 | 27.7 | 13.5
ARL14 | 0 | -9 | -5.7 | -12.3
LOC389958 | 2 (active) | 24.2 | 26.9 | 21.6
LOC440549 | 0 | 15.3 | 14.4 | 16.1
SLC22A14 | -1 | 0.9 | 25.3 | -23.4

Reformatted: 9 of the entries above
| gene | two-siRNA summed score (-2 to +2) | mean protection from cisplatin (shift in death) (%) | protection from cisplatin (shift in death), siRNA C (%) | protection from cisplatin (shift in death), siRNA D (%) |
| --- | --- | --- | --- | --- |
| CNR2 | 0 | 15.3 | 40.4 | -9.7 |
| LYN | 1 | 6.8 | 23.5 | -9.9 |
| LAS1L | 0 | -2 | -1.4 | -2.6 |
| LOC441920 | 0 | 4.4 | 8 | 0.7 |
| JADE2 | 0 | -6.2 | 6.9 | -19.3 |
| PIP5K1C | 0 | 6.6 | 25 | -11.8 |
| LOC402162 | 2 (active) | 19.7 | 12.7 | 26.7 |
| LOC389316 | 0 | 0.2 | 3.8 | -3.5 |
| SPATA18 | 0 | 3.8 | 7.3 | 0.4 |

More records follow:
gene | two-siRNA summed score (-2 to +2) | mean protection from cisplatin (shift in death) (%) | protection from cisplatin (shift in death), siRNA C (%) | protection from cisplatin (shift in death), siRNA D (%)
CAMK2B | 0 | -9.8 | -12.4 | -7.2
LOC389663 | 1 | 12.1 | 10.6 | 13.6
FLJ31033 | 0 | -0.3 | 3.7 | -4.3
LOC133874 | 1 | 13 | 1.1 | 24.8
LOC127545 | 0 | 11.8 | 23.9 | -0.3
MTMR7 | 1 | 11.4 | 12.8 | 10.1
TMEM263 | 1 | 14.7 | 22.2 | 7.3
SDR42E1 | 0 | -5 | 2.3 | -12.3
RUSF1 | 0 | 11.4 | 6.6 | 16.2
KRTAP6-3 | -1 | -4.8 | -16.6 | 6.9
PIAS1 | 0 | -0.2 | -0.3 | -0.2
PNRC1 | 0 | -1 | -7.1 | 5.1
IPO5 | 0 | -16.1 | -21.3 | -10.8
DSPP | 1 | 21 | 30.9 | 11.1
SH3GL3 | 0 | 5.7 | 1.9 | 9.6
ACRBP | 0 | -0.5 | 10.2 | -11.2
MTSS1 | 0 | 2.6 | -7.6 | 12.7
DNAJB6 | 0 | -0.7 | 1.7 | -3.1
DCAKD | 0 | 3 | 0.8 | 5.3
GATAD2B | 1 | 15.8 | 10.4 | 21.3
LOC401510 | 0 | 6.6 | 2.3 | 10.9
PAGE2 | 1 | 21.8 | 31.1 | 12.5
ACTR3B | 0 | 2.4 | -5.9 | 10.8
ADAM22 | 0 | -18.2 | 6.4 | -42.8
SIX6 | 0 | -1.5 | -1.2 | -1.7
MORF4L2 | 0 | 12.6 | 10 | 15.2
IGF2BP1 | 1 | 10 | 5.2 | 14.8
NDUFA12 | 0 | 13.2 | 11 | 15.3
LOC441356 | 0 | 4.7 | 3.6 | 5.7
KRTAP10-11 | 0 | 6.9 | 4.2 | 9.6
APC | 0 | -0.3 | 2.6 | -3.3
WNT1 | 0 | -14.4 | -20.3 | -8.4
LOC388397 | 0 | 15.3 | 18 | 12.6
PAEP | 0 | 16 | 7.9 | 24.1
FGF13 | 0 | -1.1 | -3.1 | 0.8
GBP5 | 0 | 2.2 | 3.3 | 1.1
LOC401531 | 0 | 6.6 | 5.7 | 7.5
LOC441153 | 1 | 22.3 | 20.9 | 23.7
AMN | 0 | 13.3 | -1.3 | 27.8
PRPF3 | 0 | 7.1 | 5.9 | 8.4
LOC440134 | 1 | 4.7 | -1.7 | 11.2
STOML2 | -1 | -16.2 | -33.9 | 1.5
PEX11A | 0 | -3 | 2.9 | -8.9
